Measurements reported in the supplement of paper PMC12067093, “Discovery and optimisation of a covalent ligand for TRIM25 and its application to targeted protein ubiquitination” (Chemical Science, 2025).
This is one part of the list.

Chains of the proteins cited; added tags and fusions are not shown. Lines headed by an entry give the natural chain unless they say otherwise; changes in a name come on top.
UniProt Q96RT1: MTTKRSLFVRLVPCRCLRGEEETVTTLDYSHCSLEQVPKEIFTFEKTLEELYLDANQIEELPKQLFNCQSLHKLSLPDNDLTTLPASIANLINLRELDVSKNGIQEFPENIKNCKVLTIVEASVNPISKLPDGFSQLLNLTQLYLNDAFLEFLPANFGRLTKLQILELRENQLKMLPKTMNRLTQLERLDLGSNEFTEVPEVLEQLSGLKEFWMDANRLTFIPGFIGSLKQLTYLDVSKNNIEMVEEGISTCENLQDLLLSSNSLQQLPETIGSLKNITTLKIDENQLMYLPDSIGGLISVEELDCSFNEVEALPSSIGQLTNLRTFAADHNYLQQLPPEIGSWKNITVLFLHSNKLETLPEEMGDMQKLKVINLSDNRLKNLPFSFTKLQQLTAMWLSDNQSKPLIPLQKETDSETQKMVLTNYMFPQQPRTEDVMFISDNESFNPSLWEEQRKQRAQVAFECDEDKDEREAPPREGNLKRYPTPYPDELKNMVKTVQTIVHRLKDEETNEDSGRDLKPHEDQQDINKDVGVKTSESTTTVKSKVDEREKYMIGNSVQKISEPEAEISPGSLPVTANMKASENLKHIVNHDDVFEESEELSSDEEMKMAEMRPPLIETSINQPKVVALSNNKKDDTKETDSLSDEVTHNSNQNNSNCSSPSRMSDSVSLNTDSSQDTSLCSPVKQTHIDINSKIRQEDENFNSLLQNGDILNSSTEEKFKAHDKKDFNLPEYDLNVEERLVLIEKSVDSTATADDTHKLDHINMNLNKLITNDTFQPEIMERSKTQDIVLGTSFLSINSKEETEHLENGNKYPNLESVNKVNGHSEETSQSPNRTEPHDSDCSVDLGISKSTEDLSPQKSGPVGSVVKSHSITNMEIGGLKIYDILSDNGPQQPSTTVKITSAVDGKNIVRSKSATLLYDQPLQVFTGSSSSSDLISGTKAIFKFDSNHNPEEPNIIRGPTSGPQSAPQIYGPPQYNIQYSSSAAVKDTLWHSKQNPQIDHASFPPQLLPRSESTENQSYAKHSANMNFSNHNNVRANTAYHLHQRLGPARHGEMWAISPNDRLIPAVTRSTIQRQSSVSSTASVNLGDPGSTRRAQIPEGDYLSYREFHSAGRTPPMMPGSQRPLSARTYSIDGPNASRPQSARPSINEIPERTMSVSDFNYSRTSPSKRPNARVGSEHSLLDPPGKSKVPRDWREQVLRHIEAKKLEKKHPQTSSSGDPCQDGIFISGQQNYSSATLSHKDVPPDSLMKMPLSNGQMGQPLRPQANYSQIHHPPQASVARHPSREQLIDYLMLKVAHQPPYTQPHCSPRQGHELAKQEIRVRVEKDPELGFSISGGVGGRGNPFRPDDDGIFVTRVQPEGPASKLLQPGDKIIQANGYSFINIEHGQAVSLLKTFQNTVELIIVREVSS
UniProt P07814: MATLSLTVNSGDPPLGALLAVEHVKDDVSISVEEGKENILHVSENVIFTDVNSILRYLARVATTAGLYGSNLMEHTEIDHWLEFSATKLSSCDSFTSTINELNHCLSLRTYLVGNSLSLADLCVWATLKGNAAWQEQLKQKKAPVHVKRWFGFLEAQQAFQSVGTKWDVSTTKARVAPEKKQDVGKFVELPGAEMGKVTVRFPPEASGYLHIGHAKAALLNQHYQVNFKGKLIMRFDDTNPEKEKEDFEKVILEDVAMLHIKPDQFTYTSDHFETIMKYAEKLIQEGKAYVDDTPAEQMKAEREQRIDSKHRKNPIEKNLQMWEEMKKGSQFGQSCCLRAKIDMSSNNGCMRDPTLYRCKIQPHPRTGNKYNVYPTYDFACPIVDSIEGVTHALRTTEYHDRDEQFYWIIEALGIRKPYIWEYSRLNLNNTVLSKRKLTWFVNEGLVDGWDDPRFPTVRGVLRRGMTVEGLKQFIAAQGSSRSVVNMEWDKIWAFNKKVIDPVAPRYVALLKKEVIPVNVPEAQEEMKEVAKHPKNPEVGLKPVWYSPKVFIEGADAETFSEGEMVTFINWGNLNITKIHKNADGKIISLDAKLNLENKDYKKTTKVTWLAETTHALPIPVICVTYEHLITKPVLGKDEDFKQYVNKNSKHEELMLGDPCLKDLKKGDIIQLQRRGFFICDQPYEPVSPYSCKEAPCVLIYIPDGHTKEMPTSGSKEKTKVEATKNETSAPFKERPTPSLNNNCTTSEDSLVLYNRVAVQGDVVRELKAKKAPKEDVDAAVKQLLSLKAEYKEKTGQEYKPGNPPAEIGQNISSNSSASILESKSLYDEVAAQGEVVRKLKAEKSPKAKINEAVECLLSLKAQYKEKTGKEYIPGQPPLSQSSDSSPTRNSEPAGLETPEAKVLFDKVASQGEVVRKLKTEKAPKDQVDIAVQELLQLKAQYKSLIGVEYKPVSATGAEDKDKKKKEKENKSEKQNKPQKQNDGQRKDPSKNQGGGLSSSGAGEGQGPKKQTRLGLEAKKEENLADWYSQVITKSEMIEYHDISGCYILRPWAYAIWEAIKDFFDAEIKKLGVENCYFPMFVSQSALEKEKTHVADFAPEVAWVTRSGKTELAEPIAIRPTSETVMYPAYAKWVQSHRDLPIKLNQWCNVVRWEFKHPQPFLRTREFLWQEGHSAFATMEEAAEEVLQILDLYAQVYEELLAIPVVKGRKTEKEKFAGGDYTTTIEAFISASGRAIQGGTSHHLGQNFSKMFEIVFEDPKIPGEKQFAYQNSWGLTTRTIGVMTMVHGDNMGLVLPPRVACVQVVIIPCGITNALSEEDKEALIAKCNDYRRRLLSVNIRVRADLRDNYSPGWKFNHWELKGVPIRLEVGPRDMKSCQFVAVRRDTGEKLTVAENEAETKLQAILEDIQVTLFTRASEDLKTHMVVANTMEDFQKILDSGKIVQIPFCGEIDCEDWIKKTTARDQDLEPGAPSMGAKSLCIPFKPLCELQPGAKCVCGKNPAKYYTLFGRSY
UniProt Q32P44: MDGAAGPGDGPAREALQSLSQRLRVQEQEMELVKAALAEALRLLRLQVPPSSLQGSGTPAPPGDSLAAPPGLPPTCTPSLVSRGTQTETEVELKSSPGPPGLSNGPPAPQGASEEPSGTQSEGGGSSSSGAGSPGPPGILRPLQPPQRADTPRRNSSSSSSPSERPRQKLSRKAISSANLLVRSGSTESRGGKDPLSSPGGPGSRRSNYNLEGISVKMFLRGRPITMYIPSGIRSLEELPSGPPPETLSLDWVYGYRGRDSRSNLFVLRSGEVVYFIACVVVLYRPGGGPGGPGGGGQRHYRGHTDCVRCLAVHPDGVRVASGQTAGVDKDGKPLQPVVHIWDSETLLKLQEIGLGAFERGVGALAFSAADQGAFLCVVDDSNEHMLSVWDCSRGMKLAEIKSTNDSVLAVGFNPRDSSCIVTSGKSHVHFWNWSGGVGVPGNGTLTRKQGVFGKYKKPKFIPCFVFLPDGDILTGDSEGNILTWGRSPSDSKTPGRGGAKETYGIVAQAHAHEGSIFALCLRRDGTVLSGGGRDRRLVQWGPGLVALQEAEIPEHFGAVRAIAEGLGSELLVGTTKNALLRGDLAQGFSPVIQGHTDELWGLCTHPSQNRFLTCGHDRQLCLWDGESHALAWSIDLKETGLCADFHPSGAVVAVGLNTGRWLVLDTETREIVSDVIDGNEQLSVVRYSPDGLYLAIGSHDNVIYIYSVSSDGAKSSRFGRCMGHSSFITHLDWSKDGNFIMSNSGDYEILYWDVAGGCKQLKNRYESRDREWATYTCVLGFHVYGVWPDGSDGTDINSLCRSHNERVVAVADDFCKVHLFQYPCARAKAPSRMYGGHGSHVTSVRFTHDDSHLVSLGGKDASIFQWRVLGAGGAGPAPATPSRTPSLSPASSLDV
UniProt Q9HC35: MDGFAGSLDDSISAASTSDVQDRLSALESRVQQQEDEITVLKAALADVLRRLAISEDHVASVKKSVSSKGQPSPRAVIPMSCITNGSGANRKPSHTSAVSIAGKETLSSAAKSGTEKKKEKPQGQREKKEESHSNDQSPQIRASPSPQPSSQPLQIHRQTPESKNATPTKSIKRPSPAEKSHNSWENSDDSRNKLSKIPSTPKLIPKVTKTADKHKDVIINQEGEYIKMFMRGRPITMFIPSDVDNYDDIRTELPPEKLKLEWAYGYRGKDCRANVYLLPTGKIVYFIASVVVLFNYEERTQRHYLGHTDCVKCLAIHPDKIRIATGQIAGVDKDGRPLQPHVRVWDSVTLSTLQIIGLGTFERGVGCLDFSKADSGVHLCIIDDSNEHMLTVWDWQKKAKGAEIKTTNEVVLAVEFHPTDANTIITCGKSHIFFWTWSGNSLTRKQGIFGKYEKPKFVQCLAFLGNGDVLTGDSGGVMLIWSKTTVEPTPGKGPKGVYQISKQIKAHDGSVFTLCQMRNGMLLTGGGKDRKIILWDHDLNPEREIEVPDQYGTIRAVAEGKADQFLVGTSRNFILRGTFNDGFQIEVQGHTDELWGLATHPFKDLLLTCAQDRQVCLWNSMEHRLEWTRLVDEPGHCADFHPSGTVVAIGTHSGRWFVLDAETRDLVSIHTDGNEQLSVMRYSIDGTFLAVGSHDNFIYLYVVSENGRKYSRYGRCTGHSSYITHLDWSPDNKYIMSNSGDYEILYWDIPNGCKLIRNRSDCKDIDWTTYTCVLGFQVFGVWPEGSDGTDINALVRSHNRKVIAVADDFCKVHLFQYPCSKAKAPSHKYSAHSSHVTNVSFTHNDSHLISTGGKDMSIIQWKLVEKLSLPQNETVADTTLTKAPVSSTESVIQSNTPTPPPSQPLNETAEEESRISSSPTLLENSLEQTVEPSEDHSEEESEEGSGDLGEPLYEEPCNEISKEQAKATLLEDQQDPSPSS
UniProt Q9BQ52: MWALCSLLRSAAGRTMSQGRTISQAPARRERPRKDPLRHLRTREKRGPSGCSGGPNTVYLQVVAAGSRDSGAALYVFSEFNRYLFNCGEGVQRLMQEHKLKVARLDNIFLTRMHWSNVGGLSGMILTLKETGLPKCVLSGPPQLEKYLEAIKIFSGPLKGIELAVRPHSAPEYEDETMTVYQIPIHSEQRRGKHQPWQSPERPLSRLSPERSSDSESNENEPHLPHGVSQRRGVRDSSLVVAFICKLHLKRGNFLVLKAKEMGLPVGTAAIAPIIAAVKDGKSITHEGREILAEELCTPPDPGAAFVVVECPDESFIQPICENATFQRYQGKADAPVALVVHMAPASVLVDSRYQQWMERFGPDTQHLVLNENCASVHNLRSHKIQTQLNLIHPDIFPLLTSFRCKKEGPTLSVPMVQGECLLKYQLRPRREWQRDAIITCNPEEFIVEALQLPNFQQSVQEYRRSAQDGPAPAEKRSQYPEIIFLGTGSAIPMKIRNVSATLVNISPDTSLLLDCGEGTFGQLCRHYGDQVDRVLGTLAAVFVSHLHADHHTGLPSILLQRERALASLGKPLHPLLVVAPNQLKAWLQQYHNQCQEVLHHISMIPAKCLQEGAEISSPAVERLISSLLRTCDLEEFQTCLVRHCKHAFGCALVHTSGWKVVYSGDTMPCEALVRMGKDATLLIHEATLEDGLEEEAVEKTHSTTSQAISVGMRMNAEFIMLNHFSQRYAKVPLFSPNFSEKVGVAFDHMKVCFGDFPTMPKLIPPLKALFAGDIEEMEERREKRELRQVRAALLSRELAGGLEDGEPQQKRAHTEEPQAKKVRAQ
UniProt Q8N8S7: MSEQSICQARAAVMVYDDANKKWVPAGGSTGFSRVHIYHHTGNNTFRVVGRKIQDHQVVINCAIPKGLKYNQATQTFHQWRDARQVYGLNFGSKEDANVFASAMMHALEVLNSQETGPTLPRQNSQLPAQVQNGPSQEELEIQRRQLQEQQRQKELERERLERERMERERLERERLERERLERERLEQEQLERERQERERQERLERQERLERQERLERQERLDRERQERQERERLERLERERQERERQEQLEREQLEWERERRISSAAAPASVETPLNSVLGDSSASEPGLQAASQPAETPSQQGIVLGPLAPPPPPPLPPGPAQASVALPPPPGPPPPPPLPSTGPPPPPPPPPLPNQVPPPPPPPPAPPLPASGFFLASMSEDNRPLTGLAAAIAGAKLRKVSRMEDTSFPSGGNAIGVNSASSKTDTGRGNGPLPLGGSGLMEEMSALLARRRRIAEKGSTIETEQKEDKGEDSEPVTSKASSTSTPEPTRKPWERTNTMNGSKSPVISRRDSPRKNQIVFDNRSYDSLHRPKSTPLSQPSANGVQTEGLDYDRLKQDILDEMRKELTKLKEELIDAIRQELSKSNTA
UniProt Q6PCB8: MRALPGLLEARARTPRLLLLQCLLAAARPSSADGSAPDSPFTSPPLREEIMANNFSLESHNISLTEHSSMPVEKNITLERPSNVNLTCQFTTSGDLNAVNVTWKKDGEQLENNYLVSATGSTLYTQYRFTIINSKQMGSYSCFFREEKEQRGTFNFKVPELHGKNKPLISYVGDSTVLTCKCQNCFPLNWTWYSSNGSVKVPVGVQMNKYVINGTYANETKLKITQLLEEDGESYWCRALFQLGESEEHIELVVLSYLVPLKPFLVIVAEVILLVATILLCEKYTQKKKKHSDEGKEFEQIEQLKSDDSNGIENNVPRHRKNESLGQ

Compound: Cc1cc(ccc1-c1ccccc1)C(=O)N1CCCN(CC1)C(=O)CCl [compound 10]
Experiment: probe-labelled cysteine peptide fold change vs DMSO (competition) (log2 fold change); higher = less target engagement (more negative = stronger competition)
Conditions: THP-1, incubation time: 4 h
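Note: competitive profiling in live THP-1 cells: cysteine peptides tagged with an iodoacetamide desthiobiotin (IA-DTB) probe, intensity after compound treatment relative to DMSO-treated cells.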

Target | probe-labelled cysteine peptide fold change (10 µM) | probe-labelled cysteine peptide fold change (50 µM)
EIF5_P55010_320_YLLHGLECVVAMHQAQLISK (UniProt P55010) | 0.219 | 0.119
EIF3L_Q9Y262_417_GDPQVYEELFSYSCPK (UniProt Q9Y262) | -0.185 | -0.215
ELMO2_Q96JJ3_550_LCEGSSFR (UniProt Q96JJ3) | -0.158 | -0.0439
ERBIN_Q96RT1_464_AQVAFECDEDKDER (UniProt Q96RT1) | -0.178 | -0.00478
EIF5B_O60841_853_LAHCEELR (UniProt O60841) | 0.00613 | -0.0971
ELOVL5_Q9NYP7_61_NKQPFSCR (UniProt Q9NYP7) | -0.567 | -1.94
EPRS_P07814_350_IDMSSNNGCMRDPTLYR (UniProt P07814) | -0.0274 | -0.367
EIF3J_O75822_188_DVCISLEIDDLKK (UniProt O75822) | 0.183 | 0.15
EML3_Q32P44_604_GDLAQGFSPVIQGHTDELWGLCTHPSQNR (UniProt Q32P44) | 0.0915 | -0.0284
EML4_Q9HC35_638_LVDEPGHCADFHPSGTVVAIGTHSGR (UniProt Q9HC35) | 0.109 | 0.328
EPB41L2_O43491_232_VTLLDGTEYSCDLEK (UniProt O43491) | -0.0561 | -0.0992
EMC8_O43402_12_LTTQAYCK (UniProt O43402) | -0.0348 | -0.0715
EPRS_P07814_105_LSSCDSFTSTINELNHCLSLR (UniProt P07814) | 0.472 | 0.105
EIF4G3_O43432_928_NHDEESLECLCR (UniProt O43432) | 0.183 | -0.0438
ELAC2_Q9BQ52_640_TCDLEEFQTCLVR (UniProt Q9BQ52) | 0.0019 | -0.0197
ERCC2_P18074_491_VCLCPMIIGR (UniProt P18074) | 0.0515 | -0.804
EP300_Q09472_1176+1177_KLEFSPQTLCCYGK (UniProt Q09472) | -0.315 | -0.974
ELP1_O95163_414_QTVVPPPMCTYQLLFPHPVNQVTFLAHPQK (UniProt O95163) | -0.103 | 0.0129
ELOF1_P60002_29_MTGTLETQFTCPFCNHEK (UniProt P60002) | 0.17 | -0.124
ERBIN_Q96RT1_68_QLFNCQSLHK (UniProt Q96RT1) | 0.0454 | -0.191

Whole records as entered above. Values in the order: probe-labelled cysteine peptide fold change (10 µM)	probe-labelled cysteine peptide fold change (50 µM)
EML4_Q9HC35_638_LVDEPGHCADFHPSGTVVAIGTHSGR (UniProt Q9HC35) is listed with 0.109	0.328
ELP1_O95163_414_QTVVPPPMCTYQLLFPHPVNQVTFLAHPQK (UniProt O95163) is listed with -0.103	0.0129

The list continues:

Target | probe-labelled cysteine peptide fold change (10 µM) | probe-labelled cysteine peptide fold change (50 µM)
ENAH_Q8N8S7_62_KIQDHQVVINCAIPK (UniProt Q8N8S7) | -0.0964 | -0.196
EML3_Q32P44_310_CLAVHPDGVR (UniProt Q32P44) | 0.00439 | 0.218
ERCC4_Q92889_560_EPLTIIHPLLGCSDPYALTR (UniProt Q92889) | -0.615 | -0.524
ELF2_Q15723_591_TEGLVTCEK (UniProt Q15723) | -0.386 | -0.43
ELAVL1_Q15717_13_SNGYEDHMAEDCR (UniProt Q15717) | 0.863 | 1.62
EPS15_P42566_419_CAEEAQLISSLK (UniProt P42566) | -0.00196 | -0.102
EIF4E_P06730_170_IAIWTTECENR (UniProt P06730) | -0.102 | -0.00663
ERAP1_Q9NZ08_907_CVQQTIETIEENIGWMDK (UniProt Q9NZ08) | 0.00799 | 0.0662
EML2_O95834_110_CLAIHPDMVTIATGQVAGTTK (UniProt O95834) | -0.0841 | 0.0588
ENOPH1_Q9UHY7_202_KIADSIGCSTNNILFLTDVTR (UniProt Q9UHY7) | -0.0703 | -0.42
EIF4ENIF1_Q9NRA8_767_SSCSTPLSQANR (UniProt Q9NRA8) | -0.12 | -0.5
EIF3D_O15371_404_HCNGVDWR (UniProt O15371) | -0.0253 | -0.103
EMC4_Q5J8M3_69_CWDIALGPLK (UniProt Q5J8M3) | 0.0223 | 0.385
EMB_Q6PCB8_142_QMGSYSCFFR (UniProt Q6PCB8) | -0.126 | 0.0847
ELAC2_Q9BQ52_421_EGPTLSVPMVQGECLLK (UniProt Q9BQ52) | -0.18 | -0.12
EP300_Q09472_388_SCQVAHCASSR (UniProt Q09472) | 0.012 | -0.12
EIF4G1_Q04637_1487_ALMTAVCYSAIIFETPLR (UniProt Q04637) | 0.455 | 0.632
ENAH_Q8N8S7_7_SEQSICQAR (UniProt Q8N8S7) | 0.264 | 0.405
EIF3E_P60228_345_LFIFETFCR (UniProt P60228) | 0.417 | 0.527
